Results deposited as PubChem BioAssay AID686943 (Drosophila RNAi Screening Center, 2013).
The screen tested about 23,000 reagents; shown is a random part of those that have a named target and a result. 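Extra replicates exist only for a retested subset of genes; insulin dose and duration not given; both raised and lowered dpERK matter.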 Names joined by + are all predicted targets of the reagent. Further read-outs or replicates are left out here. Not stated in the record: the amount of reagent, the time to read-out.

Purpose: 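Knockdowns that increase or decrease active ERK after insulin receptor stimulation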 (primary screen)
Cells: Drosophila S2R+ haemocyte-like cells expressing YFP-tagged ERK (Rolled)
Reagent: long dsRNA against Drosophila genes
Challenge: insulin stimulation versus unstimulated cells; dose and duration not given
Detection: 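Per-plate z-scores of phospho-ERK immunostaining normalised to YFP-tagged ERK, measured with and without insulin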
Scale: replicate 1, z-score of dpERK with insulin: higher = more active ERK per ERK-YFP after insulin

With Cpr67Fb [DRSC10314], what was measured?
replicate 1, z-score of dpERK with insulin: -0.29

What did the screen give for CG9555 [DRSC03264]?
replicate 1, z-score of dpERK with insulin: -0.35

For CG18048 [DRSC12573], how do the results read?
replicate 1, z-score of dpERK with insulin: -0.08

For CG4597 [DRSC10432], how do the results read?
replicate 1, z-score of dpERK with insulin: -0.19

How did the screen score CG4074 [DRSC11752]?
replicate 1, z-score of dpERK with insulin: -0.48

With Ude [DRSC15324], how do the results read?
replicate 1, z-score of dpERK with insulin: 0.17

With CG33322 [DRSC03204], how do the results read?
replicate 1, z-score of dpERK with insulin: 0.06

How did the screen score Nop60B [DRSC04627]?
replicate 1, z-score of dpERK with insulin: -0.36

Which result is listed for a [DRSC04667]?
replicate 1, z-score of dpERK with insulin: -0.34

For a [DRSC04668], what does the deposit list?
replicate 1, z-score of dpERK with insulin: 0.35

With CG15614 [DRSC06567], how do the results read?
replicate 1, z-score of dpERK with insulin: 0.02

For Vps13D [DRSC09818], what was measured?
replicate 1, z-score of dpERK with insulin: -0.35

With Vps13D [DRSC09819], what does the deposit list?
replicate 1, z-score of dpERK with insulin: 0.18

What did the screen give for Cc2d2a [DRSC06750]?
replicate 1, z-score of dpERK with insulin: -0.48

For Cc2d2a [DRSC06779], how do the results read?
replicate 1, z-score of dpERK with insulin: -0.08

For CG43326 + CG43325 [DRSC04157], what was measured?
replicate 1, z-score of dpERK with insulin: 0.26

How did the screen score eIF4H1 [DRSC20276]?
replicate 1, z-score of dpERK with insulin: -0.2

For CG2113 [DRSC08554], what was measured?
replicate 1, z-score of dpERK with insulin: -0.05

What did the screen give for lncRNA:CR43493 + l(1)G0196 [DRSC20628]?
replicate 1, z-score of dpERK with insulin: -0.1

Which result is listed for CG7166 [DRSC11809]?
replicate 1, z-score of dpERK with insulin: -0.46

For Sirup [DRSC03031], how do the results read?
replicate 1, z-score of dpERK with insulin: 0.86

With Rpn12 [DRSC11275], what does the deposit list?
replicate 1, z-score of dpERK with insulin: -2.13

With dtn [DRSC17939], how do the results read?
replicate 1, z-score of dpERK with insulin: -0.49

How did the screen score Tsp68C [DRSC09295]?
replicate 1, z-score of dpERK with insulin: -0.77

For Kal1 [DRSC15983], what was measured?
replicate 1, z-score of dpERK with insulin: 0.41

How did the screen score Gpdh1 [DRSC03336]?
replicate 1, z-score of dpERK with insulin: 0.04

For Gpdh1 [DRSC21666], how do the results read?
replicate 1, z-score of dpERK with insulin: -0.72

What is on record for CG7222 [DRSC07019]?
replicate 1, z-score of dpERK with insulin: 0.67

For wdb [DRSC14163], what does the deposit list?
replicate 1, z-score of dpERK with insulin: 0.96

What is on record for CG34199 [DRSC05867]?
replicate 1, z-score of dpERK with insulin: -0.22

How did the screen score Mlh1 [DRSC07473]?
replicate 1, z-score of dpERK with insulin: 0.44
